The test deals with T1, SyFumC (GST-SyFumC; Synechocystis 6803 fumarase C) (Synechocystis sp. PCC 6803, UniProt Q55674).
T1 construct: gene fumC
T1 sequence (Q55674 1-466): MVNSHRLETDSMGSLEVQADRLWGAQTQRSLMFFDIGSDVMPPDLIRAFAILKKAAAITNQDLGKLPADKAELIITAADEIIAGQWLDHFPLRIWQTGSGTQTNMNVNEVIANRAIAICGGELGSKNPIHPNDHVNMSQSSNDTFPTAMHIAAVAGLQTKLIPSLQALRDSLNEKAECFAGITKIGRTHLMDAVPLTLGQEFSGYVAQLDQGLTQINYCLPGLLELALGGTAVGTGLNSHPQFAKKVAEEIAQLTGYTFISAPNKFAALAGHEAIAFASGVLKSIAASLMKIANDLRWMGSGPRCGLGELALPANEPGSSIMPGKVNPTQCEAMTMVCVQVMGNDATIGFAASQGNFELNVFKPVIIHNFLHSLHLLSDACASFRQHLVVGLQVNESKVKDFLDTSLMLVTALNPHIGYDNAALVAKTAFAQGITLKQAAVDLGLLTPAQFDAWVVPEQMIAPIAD
Kind of test: inhibition, absorbance at […] nm. Conditions: read-out: % of control activity at 4 mM. The test is classed as biochemical.

Consider `O=C(O)CC(O)(CC(=O)O)C(=O)O` [citrate], for which the remaining activity at 4000 µM lay within 45 to 58%.

The values above are taken from paper PMC6650407 (Scientific Reports, 2019).
